# Measurements published in paper PMC7791131.
# By UniProt entry, the sequences of proteins in these tests, tags left out. Residues count along the entry.
# UniProt P13500, residues 24-99: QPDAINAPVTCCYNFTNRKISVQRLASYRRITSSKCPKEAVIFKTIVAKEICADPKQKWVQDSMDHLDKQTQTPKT
# Results are given in words; binding and its absence hold for the method and conditions named. Binding seen in cells or lysates may run through a third protein. Some results given as binding are weak or reduced against the parent protein; the word gives no strength.
# Molecular target: T1, MEX3A (human (human glioma cell lines; cells of the co-IP not stated)) (UniProt A1L020)
# T1 sequence: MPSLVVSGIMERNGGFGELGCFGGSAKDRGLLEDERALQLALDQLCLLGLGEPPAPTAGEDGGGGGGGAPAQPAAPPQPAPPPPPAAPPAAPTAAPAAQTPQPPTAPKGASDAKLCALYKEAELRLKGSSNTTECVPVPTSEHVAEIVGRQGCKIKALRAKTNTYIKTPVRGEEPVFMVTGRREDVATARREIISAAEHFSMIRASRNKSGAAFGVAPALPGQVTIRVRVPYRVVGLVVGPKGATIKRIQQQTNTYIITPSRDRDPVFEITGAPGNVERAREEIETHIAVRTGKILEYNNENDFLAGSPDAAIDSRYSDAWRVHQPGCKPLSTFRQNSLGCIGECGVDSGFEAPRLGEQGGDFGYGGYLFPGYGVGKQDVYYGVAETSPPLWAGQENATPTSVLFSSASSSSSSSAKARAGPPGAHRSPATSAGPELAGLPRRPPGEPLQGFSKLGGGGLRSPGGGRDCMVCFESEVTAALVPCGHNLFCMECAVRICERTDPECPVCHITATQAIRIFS
# Assay: co-IP; no details given; cells, the precipitated protein and the antibodies are not stated
substance,measurement,value
CCL2 (from UniProt P13500 24-99),binding,binds
